Screen size: about 390,000 compounds; about 760 (0.19%) were called active. The shares of active, inactive and inconclusive entries below differ from those in the screen. The call rests on the fitted dose curve; in most records, active means well fitted inhibition curve with a large enough effect; inconclusive means small, poorly fitted or top-dose-only effect; inactive means flat fitted curve, though single readings scatter. Potencies beside an inconclusive call are fits to weak or partial responses and may not hold up.
experiment: qHTS for Inhibitors of Vif-A3F Interactions: qHTS; details: HeLa A3F-eYFP + Vif (tagged APOBEC3F with the HIV-1 protein that degrades it), YFP fluorescence increase; series mostly up to 46.1 µM; activity, negative = active: at the top concentration; further: nearly all actives have a fitted effect of over 65% in size; on activity, negative = active: % of control where 0% means no effect
Outline: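 HeLa cells stably expressing Vif plus C-terminally eYFP-tagged A3F were seeded, incubated overnight at 37 deg C, dosed with compound, incubated overnight again at 37 deg C. Yellow fluorescence (Ex 488/Em 500-530) reported blocked Vif-mediated A3F-eYFP degradation.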
Potency means the concentration at half of the fitted maximal effect.

Compound	activity, negative = active	Potency
Cc1ccc(N2NC(=O)/C(=C/c3ccc(-c4ccc(Cl)c(C(=O)O)c4)o3)C2=O)cc1C	inactive: 1.76%	–
Cc1ccc(CNC(=O)CN2C(=O)NC3(CCCC3)C2=O)cc1	–	inconclusive: 3.16 µM [inhibitor, partial curve, poor fit]
Cc1ccc(N/C=C/C(=O)c2cccs2)cc1C	–	inconclusive: 22.4 µM [inhibitor, single point]
CC(C)C(=O)OCC(=O)Nc1ccc(N=Nc2ccccc2)cc1	–	inconclusive: 10 µM [inhibitor, partial curve, poor fit]
CCc1ccccc1-n1c(SCC(=O)c2c(N)n(C3CC3)c(=O)[nH]c2=O)nnc1N1CCOCC1	–	inconclusive: 6.31 µM [inhibitor, single point]
COc1ccc(-c2noc(-c3ccc(NCc4cccnc4)c([N+](=O)[O-])c3)n2)cc1OC	–	inconclusive: 11.2 µM [inhibitor, single point]
CC(NC(=O)c1ccc(C#N)cc1)C1CC2CCC1C2 (stereo not given)	–	inconclusive: 12.6 µM [inhibitor, partial curve, poor fit]
CCOC(=O)c1nn(-c2ccc(F)cc2)c(=O)cc1OCC(=O)Nc1ccc(F)c(F)c1	–	inconclusive: 12.6 µM [inhibitor, partial curve]
CC(C)CN(C(=O)CN1CCCCCC1)c1c(N)n(CC(C)C)c(=O)[nH]c1=O	–	inconclusive: 28.2 µM [inhibitor, single point]
O=C(Nc1ccc2oc(-c3cc(Br)ccc3Cl)nc2c1)c1cc2ccccc2o1	–	inconclusive: 2.24 µM [inhibitor, full curve, poor fit]
Cc1ccc(NC(=O)CN(C)C(=O)CSc2ncc(C(F)(F)F)cc2Cl)cc1	–	inconclusive: 1.58 µM [inhibitor, partial curve, poor fit]
S=C1SCN(CCc2ccccc2)CN1CCc1ccccc1	–	inconclusive: 0.562 µM [inhibitor, full curve, poor fit]
CCOc1ccc(NC(=O)C2CCN(C(=O)N3CC(C)Oc4ccc(Cl)cc43)CC2)cc1 (stereo not given)	inactive: -0.957%	–
Cc1c(N(C)S(=O)(=O)c2cccc(C(=O)NC(C)C)c2)c(=O)n(-c2ccccc2)n1C	inactive: 17.3%	–
Cc1ccc(NC(=O)C(=O)NCc2ccc(/C=C(/C#N)C(=O)NCc3cccnc3)o2)cc1	–	inconclusive: 35.5 µM [inhibitor, single point]
O=C(Nc1ccc([N+](=O)[O-])cc1)NN1CCCCCC1	inactive: -5.69%	–
COc1ccccc1CNC(=O)c1cc2cc3ccc(Cl)cc3nc2o1	inactive: -8.13%	–
CCN(CC)c1ccc(/C=C(\C#N)C(N)=S)cc1	–	inconclusive: 35.5 µM [inhibitor, single point]
CCOC(=O)N1CCc2c(sc3c2c(=O)n(-c2ccccc2)c(=O)n3CC(=O)Nc2ccc(OC)cc2OC)C1	–	inconclusive: 28.2 µM [inhibitor, single point]
COc1ccc(C(=O)C[n+]2cc(Br)cc3ccccc32)cc1[N+](=O)[O-]	–	inconclusive: 14.1 µM [inhibitor, partial curve, poor fit]
CCOc1ccc(OCC)c(NC(=O)c2cc(S(=O)(=O)N3CCCC3)cn2C)c1	inactive: 3.43%	–
CC(=O)Oc1ccc2c(c1)O/C(=C\c1ccncc1)C2=O	–	inconclusive: 31.6 µM [inhibitor, single point]

Compound	activity, negative = active	Potency
CC(C)CNC(=S)NC(=O)c1ccc(Cl)cc1Cl	–	inconclusive: 10 µM [inhibitor, partial curve, poor fit]
C/C(=N\NC(=O)c1c(Cl)c(C)nn1C)c1ccc(NC(=O)COc2ccc(Cl)cc2C)cc1	inactive: -1.35%	–
Cc1ccc(/C=c2\sc3nc(-c4cccs4)nn3c2=O)o1	–	inconclusive: 35.5 µM [inhibitor, single point]
Cc1ccc(-c2nnc3c4ccccc4c(C)nn23)cc1NC(=O)c1ccccc1	–	inconclusive: 3.98 µM [inhibitor, partial curve, poor fit]
N#CCC(=O)Nc1ccc(C(=O)OCc2ccccc2Oc2ccccc2)cc1	–	inconclusive: 35.5 µM [inhibitor, single point]
COC(=O)[C@@H]1CCCN1Cc1nc(Cc2ccccc2F)no1	–	inconclusive: 6.31 µM [inhibitor, single point]
Cc1ccccc1CS(=O)(=O)c1ccc(C(=O)N2CCC(C)CC2)cc1[N+](=O)[O-]	inactive: -5.69%	–
COc1cc(NC(=O)c2nnn(CC(=O)Nc3cc(C)ccc3C)c2N)cc(OC)c1	–	inconclusive: 35.5 µM [inhibitor, partial curve, poor fit]
C=CCNC(=S)N/N=C/c1ccc(-c2ccc(OC)cc2)o1	inactive: -4.5%	–
O=c1c(/C=N/Nc2ccccc2)c(Sc2nnnn2-c2ccccc2)nc2ccccn12	–	inconclusive: 7.08 µM [inhibitor, partial curve, poor fit]
CCN(CC)S(=O)(=O)c1ccc(NC(=O)c2cccnc2Cl)c(NC(=O)c2cccnc2Cl)c1	–	inconclusive: 35.5 µM [inhibitor, single point]
CC(=O)Nc1cccc(/C(C)=N/NC(=S)NC(C)C)c1	–	inconclusive: 35.5 µM [inhibitor, single point]
O=C(NCc1ccccn1)C1CCCN(S(=O)(=O)c2cc(Cl)ccc2Cl)C1 (stereo not given)	inactive: 5.62%	–
COC(=O)c1c(NC(=O)/C(C#N)=C/c2ccccc2)sc2c1C(C(=O)OC)CC2 (stereo not given)	–	inconclusive: 8.91 µM [inhibitor, partial curve, poor fit]
N#CC(C(=O)NCc1ccccc1)c1nc2ccccc2nc1N1CCCC1 (stereo not given)	–	active: 10 µM
Cc1ccc(N2CC(NC(=O)c3cccc(Cl)c3)CC2=O)cc1C (stereo not given)	inactive: -0.137%	–
Cc1ccc(S(=O)(=O)N2CCN(C(=O)NCc3ccc(F)cc3)CC2)c(C)c1	inactive: 2.39%	–
C/C(CCc1ccccc1)=N\NC(=S)NCCc1ccccc1	–	inconclusive: 3.55 µM [inhibitor, single point]
O=[N+]([O-])c1ccc(NC(=S)N/C(=N/CS(=O)(=O)c2ccccc2)c2ccccc2)cc1	inactive: 0.284%	–
CO/N=C/c1ccc(N2CCN(C(=O)c3cccc(C(F)(F)F)c3)CC2)c([N+](=O)[O-])c1	–	inconclusive: 2.24 µM [inhibitor, full curve]
CCOc1ccc2nc(/N=C/c3c(C)[nH]n(-c4ccccc4)c3=O)sc2c1	inactive: 14.5%	–
Cc1ccc(-c2csc(/C=C3/SC(C)C(=O)N3CC(=O)Nc3ccccc3F)n2)cc1 (stereo not given)	–	inconclusive: 15.8 µM [inhibitor, single point]

Compound	activity, negative = active	Potency
CCCCn1c(N)c(N(CCOC)C(=O)CCCc2nc3ccccc3c(=O)[nH]2)c(=O)[nH]c1=O	–	inconclusive: 2.82 µM [inhibitor, full curve, poor fit]
Oc1c(CN2CCCC2)cc(COCc2ccccc2)c2cccnc12	–	inconclusive: 20 µM [inhibitor, single point]
Cc1ccc(-n2c(=O)c3c4c(sc3n(CC(=O)C(C)(C)C)c2=O)CCCCC4)cc1C	inactive: -0.439%	–
COc1cnc(-c2ccccn2)nc1Sc1ccc(F)cc1	–	inconclusive: 22.4 µM [inhibitor, partial curve, poor fit]
CCOc1cc(N2CCOCC2)c(OCC)cc1NC(=O)c1ccc(S(C)(=O)=O)cc1	–	inconclusive: 3.98 µM [inhibitor, full curve]
C[n+]1ccccc1C1CCCC/C1=N\Nc1ccc([N+](=O)[O-])cc1[N+](=O)[O-] (stereo not given)	–	inconclusive: 31.6 µM [inhibitor, partial curve, poor fit]
CCOC(=O)c1ccccc1NC(=O)Cc1ccc(OC)c(S(=O)(=O)N2CCOCC2)c1	–	inconclusive: 22.4 µM [inhibitor, single point]
Cc1ccc(CN=Cc2[nH]c3ccc(Br)c(Cl)c3c2O)cc1	–	inconclusive: 31.6 µM [inhibitor, single point]
CCN(CC)C(=O)C[n+]1ccc(C(N)=O)cc1	inactive: 3.49%	–
COc1ccc(/C=C2\SC(=S)N(CCC(=O)NC3=NCCS3)C2=O)cc1OC	–	inconclusive: 20 µM [inhibitor, single point]
CC(C)OCCCNC(=S)Nc1ccc2nc3n(c(=O)c2c1)CCCCC3	–	inconclusive: 0.562 µM [inhibitor, full curve]
COc1ccc(CCNC(=O)CCc2c(C)c3ccc(O)c(C)c3oc2=O)cc1	inactive: -2.24%	–
CC(C)CC(NC(=O)c1ccc(Cl)cc1)C(=O)OCC(=O)c1ccc2c(c1)NC(=O)CO2 (stereo not given)	–	inconclusive: 35.5 µM [inhibitor, single point]
CCC(C)Sc1cccc(-c2nc3ccc(C)cn3c2NCc2ccccc2)c1 (stereo not given)	–	inconclusive: 20 µM [inhibitor, single point]
COc1ccc(NC(=O)Cn2c(=O)n(Cc3ccccc3Cl)c(=O)c3cc(OC)c(OC)cc32)cc1	–	inconclusive: 10 µM [inhibitor, partial curve]
Cc1nc(-c2ccccn2)nc(SCC(=O)c2ccccc2)c1Cl	–	inconclusive: 20 µM [inhibitor, single point]
CCn1c2ccccc2c2cc(Nc3cc(C)nc4ncnn34)ccc21	–	inconclusive: 35.5 µM [inhibitor, single point]
O=c1nc(/C=C/c2ccc(O)c(O)c2)oc2ccccc12	inactive: 6.03%	–
O=C(NC(c1ccccc1)c1ccccc1)c1ccccc1	–	inconclusive: 17.8 µM [inhibitor, single point]
Cc1ccc(S(=O)(=O)N(C)C)cc1NC(=O)CCNC(=O)c1ccco1	–	inconclusive: 35.5 µM [inhibitor, single point]
O=C(c1ccc(Cl)cc1)n1nc(-c2ccccc2)nc1NCc1ccco1	inactive: 0.516%	–

Of the compounds above, 3 contain bromine:
Compound	activity, negative = active	Potency
O=C(Nc1ccc2oc(-c3cc(Br)ccc3Cl)nc2c1)c1cc2ccccc2o1	–	inconclusive: 2.24 µM [inhibitor, full curve, poor fit]
COc1ccc(C(=O)C[n+]2cc(Br)cc3ccccc32)cc1[N+](=O)[O-]	–	inconclusive: 14.1 µM [inhibitor, partial curve, poor fit]
Cc1ccc(CN=Cc2[nH]c3ccc(Br)c(Cl)c3c2O)cc1	–	inconclusive: 31.6 µM [inhibitor, single point]
